Source: PubChem BioAssay AID330 (DTP/NCI, 2004)
The list does not hold the whole screen: it gathers tests that were run many times, whatever their T/C, doses with no T/C, and many T/C values between a quarter and a half above the control. Other doses and runs of a compound stand elsewhere. T/C: endpoint of the treated group in % of that of the vehicle group. Some entries give survivors of the animals treated and no T/C: the source files T/C as zero there, which appears to mark a toxic dose or a test without result, not a measured value. Some survivor counts are full or nearly so, which does not show that the dose was tolerated: survival well below the control is almost never listed, so the zero probably covers shortened survival too. Counts of survivors are from the toxicity check (mostly the fifth day) where no day follows; animals may have died later. Schedule codes are those of the source, read here as Q, the interval in days (D) or hours (H), X, the number of doses. Some structures stand for samples that the source files as different forms (salt, stereo form or complex); doses refer to the form tested. Where survival is the endpoint, this PubChem deposit counts one and a half times the control or more as active, and values a quarter to a half above the control carry no call in these data; other NCI protocols may use other cut-offs.

Test system: P388 leukemia ip, CD2F1 mice, survival T/C
Experiment: NCI In Vivo Anticancer Drug Screen. Data for tumor model P388 Leukemia (intraperitoneal) in CD2F1 (CDF1) mice
Conditions: T/C endpoint: median survival time, higher T/C = longer survival
[1] = dose: 100.0 mg/kg/injection, schedule: Q04DX003 (ip), vehicle: saline with Tween-80
[2] = dose: 200.0 mg/kg/injection, schedule: Q04DX003 (ip), vehicle: saline with Tween-80
[3] = dose: 400.0 mg/kg/injection, schedule: Q04DX003 (ip), vehicle: saline with Tween-80
[4] = dose: 200.0 mg/kg/injection, schedule: Q01DX009 (ip), vehicle: Klucel (hydroxypropylcellulose) (HPC)
[5] = dose: 400.0 mg/kg/injection, schedule: Q04DX002 (ip), vehicle: saline with Tween-80
[6] = dose: 200.0 mg/kg/injection, schedule: Q01DX005 (ip), vehicle: saline
[7] = dose: 50.0 mg/kg/injection, schedule: Q01DX009 (ip), vehicle: saline with Tween-80
[8] = dose: 200.0 mg/kg/injection, schedule: Q01DX009 (ip), vehicle: saline with Tween-80
[9] = dose: 60.0 mg/kg/injection, schedule: Q01DX005 (ip), vehicle: Klucel (hydroxypropylcellulose) (HPC)
[10] = dose: 200.0 mg/kg/injection, schedule: Q01DX005 (ip), vehicle: saline with Tween-80
[11] = dose: 200.0 mg/kg/injection, schedule: Q01DX005 (ip), vehicle: Klucel (hydroxypropylcellulose) (HPC)
[12] = dose: 120.0 mg/kg/injection, schedule: Q01DX005 (ip), vehicle: Klucel (hydroxypropylcellulose) (HPC)
[13] = dose: 240.0 mg/kg/injection, schedule: Q01DX005 (ip), vehicle: Klucel (hydroxypropylcellulose) (HPC)
[14] = dose: 3.12 mg/kg/injection, schedule: Q01DX009 (ip), vehicle: saline
[15] = dose: 6.25 mg/kg/injection, schedule: Q01DX009 (ip), vehicle: saline
[16] = dose: 12.5 mg/kg/injection, schedule: Q01DX009 (ip), vehicle: saline
[17] = dose: 50.0 mg/kg/injection, schedule: Q01DX009 (ip), vehicle: saline
[18] = dose: 100.0 mg/kg/injection, schedule: Q01DX009 (ip), vehicle: saline
[19] = dose: 200.0 mg/kg/injection, schedule: Q01DX009 (ip), vehicle: saline
[20] = dose: 50.0 mg/kg/injection, schedule: Q01DX009 (ip), vehicle: Klucel (hydroxypropylcellulose) (HPC)

NC(=O)Nc1ccc(/C=C\c2ccnc3ccccc23)cc1
survivor count [1]: 6 of 6 | survivor count [2]: 2 of 6 | survivor count [3]: 0 of 6

Cc1c2oc3c(C)ccc(C(=O)NCCN4CCCCC4)c3nc-2c(C(=O)NCCN2CCCCC2)c(N)c1=O
survivor count [4]: 2 of 6

C=C1CC(C)OC1=O (stereo not drawn)
survivor count [5]: 4 of 6

CC12OC1C(=O)C=CC2=O (stereo not drawn)
survivor count (dose: 10.0 mg/kg/injection, schedule: Q04DX002 (ip), vehicle: saline with Tween-80): 2 of 6 | survivor count (dose: 20.0 mg/kg/injection, schedule: Q04DX002 (ip), vehicle: saline with Tween-80): 0 of 6 | survivor count (dose: 100.0 mg/kg/injection, schedule: Q04DX002 (ip), vehicle: saline with Tween-80): 0 of 6 | survivor count (dose: 200.0 mg/kg/injection, schedule: Q04DX002 (ip), vehicle: saline with Tween-80): 0 of 6 | survivor count [5]: 0 of 6

NCCCO[C@H]1CO[C@H]2[C@@H]1OC[C@H]2OCCCN
survivor count [6]: 0 of 6

CCCCc1nc2cc(CN3CCN(C(c4ccccc4)c4ccccc4)CC3)ccc2n1CC
survivor count [7]: 6 of 6 | survivor count (dose: 100.0 mg/kg/injection, schedule: Q01DX009 (ip), vehicle: saline with Tween-80): 3 of 6 | survivor count [8]: 2 of 6

O=C(O)c1c(Cl)n(Cc2ccc(Cl)cc2Cl)c2ccccc12
survivor count [9]: 6 of 6

NC(CCC(=O)NC(CSC(c1ccccc1)(c1ccccc1)c1ccccc1)C(=O)NCC(=O)O)C(=O)O (stereo not drawn)
survivor count (dose: 480.0 mg/kg/injection, schedule: Q01DX005 (ip), vehicle: Klucel (hydroxypropylcellulose) (HPC)): 2 of 6

OCCN1OCCCC1c1ccccc1 (stereo not drawn)
survivor count [8]: 5 of 6

CC(=O)NCCn1nc(-c2ccc(Cl)cc2)c(-c2ccc(Cl)cc2)c(C(C)=O)c1=O
survivor count (dose: 25.0 mg/kg/injection, schedule: Q01DX005 (ip), vehicle: saline with Tween-80): 5 of 6 | survivor count (dose: 50.0 mg/kg/injection, schedule: Q01DX005 (ip), vehicle: saline with Tween-80): 0 of 6 | survivor count (dose: 100.0 mg/kg/injection, schedule: Q01DX005 (ip), vehicle: saline with Tween-80): 0 of 6 | survivor count [10]: 0 of 6

COc1ccc(O)c(CN2CCN(Cc3cc(OC)ccc3O)CC2)c1
survivor count (dose: 60.0 mg/kg/injection, schedule: Q01DX005 (ip), vehicle: saline with Tween-80): 6 of 6 | survivor count (dose: 120.0 mg/kg/injection, schedule: Q01DX005 (ip), vehicle: saline with Tween-80): 6 of 6 | survivor count (dose: 240.0 mg/kg/injection, schedule: Q01DX005 (ip), vehicle: saline with Tween-80): 6 of 6

CC1OC(OC2C(O[C@H]3CC[C@@]4(C)C(=CC[C@H]5[C@@H]6C[C@@H]7O[C@]8(CC[C@H](C)CN8)[C@@H](C)[C@@H]7[C@@]6(C)CC[C@@H]54)C3)OC(CO)C(O)C2OC2OC(CO)C(O)C(O)C2O)C(O)C(O)C1O (stereo partly drawn)
survivor count [7]: 4 of 6

CCc1nc(N)nc(N)c1-c1ccc(NCCc2ccccc2)c([N+](=O)[O-])c1
T/C (dose: 50.0 mg/kg/injection, schedule: Q01DX005 (ip), vehicle: Klucel (hydroxypropylcellulose) (HPC)): 129 % of control | T/C [11]: 142 % of control

CCCCN1CCC2(C)c3cc(O)ccc3CC1C2CC (stereo not drawn)
survivor count [9]: 6 of 6 | survivor count [12]: 6 of 6 | survivor count [13]: 4 of 6

COc1ccc(-[n+]2noc(N)n2)cc1
survivor count (dose: 100.0 mg/kg/injection, schedule: Q01DX009 (ip), vehicle: water): 3 of 6

C=C(Br)C(=NC(C)(C)C)Nc1cccc(Cl)c1
survivor count [11]: 4 of 5

COc1ccc(NC(CCN2CCN(c3ccccc3)CC2)=NC(C)(C)C)cc1
survivor count [4]: 1 of 6

OC(Cc1cnc2ccccc2c1)(c1ccccc1)c1ccccc1
survivor count (dose: 25.0 mg/kg/injection, schedule: Q04DX002 (ip), vehicle: saline with Tween-80): 6 of 6

CCCCCCCCCCC[N+]1(CC)CCCC1
survivor count (dose: 0.19 mg/kg/injection, schedule: Q01DX009 (ip), vehicle: saline): 6 of 6 | survivor count [14]: 5 of 6 | survivor count [15]: 3 of 6 | survivor count [16]: 6 of 6 | survivor count [17]: 0 of 6 | survivor count [18]: 0 of 6 | survivor count [19]: 0 of 6

CSCCC([NH-])C(=O)O.CSCCC([NH-])C(=O)O.[Zn+2] (stereo not drawn)
survivor count [10]: 0 of 6

COc1cc(-c2ccc(Nc3ccccc3C(=O)O)c(OC)c2)ccc1Nc1ccccc1C(=O)O
T/C [19]: 126 % of control

CCOC(=O)c1ccc[nH]1
survivor count (dose: 400.0 mg/kg/injection, schedule: Q01DX009 (ip), vehicle: saline with Tween-80): 1 of 6

C[N+](C)(C)Cc1ccccc1
survivor count (dose: 25.0 mg/kg/injection, schedule: Q01DX009 (ip), vehicle: saline): 1 of 6 | survivor count [20]: 0 of 6 | survivor count [1]: 0 of 6 | survivor count [2]: 0 of 6 | survivor count [3]: 0 of 6

COC1=C(N)C(=O)c2cccnc2C1=O
survivor count (dose: 50.0 mg/kg/injection, schedule: Q01DX009 (ip), vehicle: DMSO): 1 of 4

COC1=CP(C)(=S)CC1 (stereo not drawn)
survivor count (dose: 400.0 mg/kg/injection, schedule: Q04DX003 (ip), vehicle: Klucel (hydroxypropylcellulose) (HPC)): 4 of 6

CCCCCCCCCCCC[N+]1(CC)CCCCCC1
survivor count [14]: 5 of 6 | survivor count [15]: 2 of 6 | survivor count [16]: 0 of 6 | survivor count [17]: 0 of 6 | survivor count [18]: 0 of 6 | survivor count [19]: 0 of 6

CCC(C)C(NC(=O)C(C)Oc1cc(Cl)c(Cl)cc1Cl)C(=O)O (stereo not drawn)
survivor count [10]: 0 of 5

CCN(CC)CCOc1cccc(NC(=O)CN(CC)CC)c1
survivor count [12]: 3 of 6 | survivor count [13]: 0 of 6

CC(C)CCCC(C)C1CCC2C3CCC4CC(=O)C(C5(O)C(=O)Nc6ccccc65)CC4(C)C3CCC12C (stereo not drawn)
survivor count (dose: 25.0 mg/kg/injection, schedule: Q01DX009 (ip), vehicle: Klucel (hydroxypropylcellulose) (HPC)): 6 of 6 | survivor count [20]: 6 of 6 | survivor count (dose: 100.0 mg/kg/injection, schedule: Q01DX009 (ip), vehicle: Klucel (hydroxypropylcellulose) (HPC)): 6 of 6

N#CCCNc1cc(O)c2c(c1O)C(=O)c1ccccc1C2=O
survivor count (dose: 12.5 mg/kg/injection, schedule: Q01DX009 (ip), vehicle: other): 4 of 5

CN(C)C=C1C(=O)CCCC1=O
survivor count (dose: 240.0 mg/kg/injection, schedule: Q01DX005 (ip), vehicle: saline): 2 of 6

CCCCCC(CN(C)C)C(O)CCc1ccc(Cl)c(Cl)c1 (stereo not drawn)
survivor count [4]: 0 of 6

C=CCNC(=S)N/N=C(/c1ccccn1)C(C)C
survivor count [10]: 2 of 6

CCN(CC)CCNc1ncnc2[nH]ncc12
survivor count [6]: 0 of 5

CCC[CH2][Sn]([CH2]CCC)([CH2]CCC)[S]C(=S)NCCNC(=S)[S][Sn]([CH2]CCC)([CH2]CCC)[CH2]CCC
survivor count (dose: 12.5 mg/kg/injection, schedule: Q01DX010 (ip), vehicle: saline): 4 of 7 | survivor count (dose: 25.0 mg/kg/injection, schedule: Q01DX010 (ip), vehicle: saline): 0 of 7 | survivor count (dose: 50.0 mg/kg/injection, schedule: Q01DX010 (ip), vehicle: saline): 0 of 7

O=C(O)CSC(=O)Nc1ccc(N=Nc2ccccc2)cc1
survivor count [10]: 3 of 6

CCC1OCCN1C(C)C (stereo not drawn)
survivor count [3]: 3 of 6
